Assay results taken from patent publication EP4663661A1 (Hainan Simcere Zaiming Pharmaceutical Co., Ltd., dated 2025).
Residue numbers refer to the chain shown, from its start. No constants are given. Whether binding was seen depends on the method and setting. Some binding calls cover weakened binding; strength is not graded here. For some of these results: Tags and fused reporters may be left off the sequences shown.

B1: hCDH6-1-H2L1 (antibody, human IgG1, kappa, V domains shown)
VH: EVQLVQSGAEVKKPGSSVKVSCKASGYTFTNYWMHWVRQAPGQGLEWMGDIDPSHSETHYTQKFKDRVTITVDKSTSTAYMELSSLRSEDTAVYYCARGDLGRFDYWGQGTTVTVSS
VL: DIVMTQSPDSLAVSLGERATINCRASESVSIHGTHLMHWYQQKPGQPPKLLIYAASNLESGVPDRFSGSGSETDFTLTISSLQAEDVAVYYCQQSFEDPWTFGGGTKVEIKR
B2: hCDH6-1-H2L2 (antibody, human IgG1, kappa, V domains shown)
VH: B1 VH
VL: B1 VL with P44S
B3: hCDH6-1-H3L1 (antibody, human IgG1, kappa, V domains shown)
VH: B1 VH with I70L
VL: B1 VL
B4: hCDH6-1-H3L2 (antibody, human IgG1, kappa, V domains shown)
VH: B1 VH with I70L
VL: B1 VL with P44S
B5: hCDH6-1-H3L3 (antibody, human IgG1, kappa, V domains shown)
VH: B1 VH with I70L
VL: DIQMTQSPSSLSASVGDRVTITCRASESVSIHGTHLMHWYQQKPGKPPKLLIYAASNLESGVPSRFSGSGSETDFTFTISSLQPEDIATYYCQQSFEDPWTFGGGTKVEIKR
B6: hCDH6-1-H4L1 (antibody, human IgG1, kappa, V domains shown)
VH: B1 VH with A40R
VL: B1 VL
B7: hCDH6-1-H4L2 (antibody, human IgG1, kappa, V domains shown)
VH: B1 VH with A40R
VL: B1 VL with P44S
B8: hCDH6-1-H4L3 (antibody, human IgG1, kappa, V domains shown)
VH: B1 VH with A40R
VL: B5 VL
B9: hCDH6-6-H1L3 (antibody, human IgG1, kappa, V domains shown)
VH: EVQLVQSGAEVKKPGASVKVSCKASGYTFTDYYMAWVRQAPGQGLEWMGYIFPNSGGTDYSQKFKGRVTMTVDKSTSTVYMELSSLRSEDTAVYYCARELGADYGDYYAMDHWGQGTTVTVSS
VL: DIQMTQSPSSLSASVGDRVTITCRASENIDSYLAWYQQKPGKSPQLLVYSATLLADGVPSRFSGSGSGTDYTLTISSLQPEDFATYYCQHYYRTPPTFGQGTKLEIKR
B10: hCDH6-6-H1L4 (antibody, human IgG1, kappa, V domains shown)
VH: B9 VH
VL: B9 VL with Q45K, T85R
B11: hCDH6-6-H1L5 (antibody, human IgG1, kappa, V domains shown)
VH: B9 VH
VL: DIVMTQSPLSLPVTPGEPASISCRASENIDSYLAWYLQKPGKSPQLLVYSATLLADGVPDRFSGSGSGTDFTLKISRVEAEDVGVYYCQHYYRTPPTFGQGTKLEIKR
B12: hCDH6-6-H2L3 (antibody, human IgG1, kappa, V domains shown)
VH: B9 VH with M70L
VL: B9 VL
B13: hCDH6-6-H2L4 (antibody, human IgG1, kappa, V domains shown)
VH: B9 VH with M70L
VL: B9 VL with Q45K, T85R
B14: hCDH6-6-H2L5 (antibody, human IgG1, kappa, V domains shown)
VH: B9 VH with M70L
VL: B11 VL
B15: hCDH6-6-H3L1 (antibody, human IgG1, kappa, V domains shown)
VH: B9 VH with G42R
VL: B9 VL with Q45K, V48L
B16: hCDH6-6-H3L2 (antibody, human IgG1, kappa, V domains shown)
VH: B9 VH with G42R
VL: B9 VL with Q45K
B17: hCDH6-6-H3L3 (antibody, human IgG1, kappa, V domains shown)
VH: B9 VH with G42R
VL: B9 VL
B18: hCDH6-6-H3L4 (antibody, human IgG1, kappa, V domains shown)
VH: B9 VH with G42R
VL: B9 VL with Q45K, T85R
B19: hCDH6-6-H3L5 (antibody, human IgG1, kappa, V domains shown)
VH: B9 VH with G42R
VL: B11 VL
B20: hCDH6-14-H3L1 (antibody, human IgG1, kappa, V domains shown)
VH: EIQLVQSGAEVKKPGASVKVSCKASGYTFTDNYINWVRQAPGQRLEWMGWIYPGTGNSYYNEKFKGRVTLTVDTSASTAYMELSSLRSEDTAVYYCASSYGDSFDYWGQGTTVTVSS
VL: DIQMTQSPSSLSASVGDRVTITCRASQDIRNYLNWYQQKPGKAFKLLISYTSRLHSGVPSRFSGSGSGTDFTFTISSLQPEDIATYYCQQYSQLPWTFGGGTKVEIKR
B21: hCDH6-14-H4L1 (antibody, human IgG1, kappa, V domains shown)
VH: B20 VH with I2V, R44G, L70I
VL: B20 VL
B22: hCDH6-14-H6L1 (antibody, human IgG1, kappa, V domains shown)
VH: B20 VH with I2V, L70I, Y95L
VL: B20 VL
B23: hCDH6-14-H3L2 (antibody, human IgG1, kappa, V domains shown)
VH: B20 VH
VL: B20 VL with K42G, F44P
B24: hCDH6-14-H4L2 (antibody, human IgG1, kappa, V domains shown)
VH: B20 VH with I2V, R44G, L70I
VL: B20 VL with K42G, F44P
B25: hCDH6-14-H6L2 (antibody, human IgG1, kappa, V domains shown)
VH: B20 VH with I2V, L70I, Y95L
VL: B20 VL with K42G, F44P
B26: hCDH6-14-H3L3 (antibody, human IgG1, kappa, V domains shown)
VH: B20 VH
VL: DIVMTQSPDSLAVSLGERATINCRASQDIRNYLNWYQQKPGQTPKLLISYTSRLHSGVPDRFSGSGSGTDFTLTISSLQAEDVAVYYCQQYSQLPWTFGGGTKVEIKR
B27: hCDH6-14-H4L3 (antibody, human IgG1, kappa, V domains shown)
VH: B20 VH with I2V, R44G, L70I
VL: B26 VL
B28: hCDH6-14-H6L3 (antibody, human IgG1, kappa, V domains shown)
VH: B20 VH with I2V, L70I, Y95L
VL: B26 VL
B29: CHI-CDH6-3 (antibody, human IgG1, kappa, V domains shown)
VH: QVQLQQPGAELVKPGASVKLSCKASGYTFTSYWIHWVKQRPGQGLEWIGEINPSNGVTNCNENFKSKATLTVDKSSSTAYMQLSSLTSEDSAVYYCTIPNLLWWYFDVWGAGTTVTVSS
VL: DIQMTQSPASLSVSVGETVTITCRASENIYSNLAWYQQKQGKSPQLLVYEATNLADGVPSRFSGSGSGTQYSLKINSLQSEDFGSYYCQHFWGTLWTFGGGTKLEIKR
B30: CHI-CDH6-4 (antibody, human IgG1, kappa, V domains shown)
VH: QVQLQQSGPELVKPGASVKISCKASGYAFSNFWMNWVKQRPGKGLEWIGWIYPGDGDTNYNGKFKDKATLTADKSSSTAYIQLSSLTSEDSAVYFCARLYDAWGFFDYWGQGTTLTVSS
VL: QIVLTQSPAIMSASPGQKVTITCSASSSVNYMHWYQQKLGSSPKLWIYDKSKLAPGVPARFSGSGSGTSYSLTISSMEAEDAASYFCHQWSSYPPMTFGGGTKLEIKR
B31: CHI-CDH6-5 (antibody, human IgG1, kappa, V domains shown)
VH: QVQLQQSGAELVRPGTSVKMSCKAAEYTFTNYWIGWVKQRPGHGLEWIGDLYPGGDHANYNEKFEGKATLTADTSSSTAYMQLSSLTSEDSAIYYCARGMLTTGFDSWGQGTTLTVSS
VL: DIVMSQSPSSLAVSAGEKVTMSCKSSQSLFNSRTRKNYLAWYQQKPGQSPKLLIYWASTRESGVPDRFTGSGSGTDFTLTISSVQAEDLAVYYCKQSYYLRTFGGGTKLEIKR

These binders were tested against T1, his-tagged human CDH6 extracellular region protein (hCDH6 ECD-his) (human) (UniProt P55285) (assay: ELISA, antigen coated).
T1 sequence: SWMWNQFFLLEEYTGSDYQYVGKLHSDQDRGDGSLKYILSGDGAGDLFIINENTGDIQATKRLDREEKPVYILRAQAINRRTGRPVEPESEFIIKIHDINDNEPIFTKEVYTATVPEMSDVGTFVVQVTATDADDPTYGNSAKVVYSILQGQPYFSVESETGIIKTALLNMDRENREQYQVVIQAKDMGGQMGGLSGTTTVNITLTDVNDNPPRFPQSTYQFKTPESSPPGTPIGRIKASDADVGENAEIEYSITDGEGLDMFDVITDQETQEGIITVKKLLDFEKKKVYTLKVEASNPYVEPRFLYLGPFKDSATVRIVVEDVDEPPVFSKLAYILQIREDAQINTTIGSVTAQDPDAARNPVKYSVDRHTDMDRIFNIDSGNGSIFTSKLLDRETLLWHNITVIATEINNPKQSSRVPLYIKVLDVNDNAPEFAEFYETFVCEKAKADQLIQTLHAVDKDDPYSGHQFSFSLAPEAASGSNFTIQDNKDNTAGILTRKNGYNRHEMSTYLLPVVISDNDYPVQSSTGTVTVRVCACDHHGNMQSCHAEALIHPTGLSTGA

binding, binds:
B1, B2, B3, B4, B5, B6, B7, B8, B9, B10, B11, B12, B13, B14, B15, B16, B17, B18, B19, B20, B21, B22, B23, B24, B25, B26, B27, B28

The binders below were run against monkey CDH6 protein (cynoCDH6 ECD-his) (monkey (cyno)) (assay: ELISA, antigen coated).

binding, binds:
B29, B30, B31
